Values of other authors in patent US9487476B2, “Catechol diethers as potent anti-HIV agents” (priority 2011, dated 2016).
Some entries share one result that the patent states for a list of compounds.

Tested on: WT HIV-1
Conditions: literature; read-out: reported anti-HIV activity, WT HIV-1; cited from earlier work

| Compound | EC50 [nM] |
| --- | --- |
| Cc1cc(/C=C/C#N)cc(C)c1Nc1ccnc(Nc2ccc(C#N)cc2)n1 [rilpivirine, 4-[[4-[[4-[(1E)-2-cyanoethenyl]-2,6-dimethylphenyl]amino]-2-pyrimidinyl]amino]benzonitrile] | < 5 |
| CCc1c(C)[nH]c(=O)c(I)c1Oc1cccc(/C=C/C#N)c1 [Compound 38] | < 5 |
| N#C/C=C/c1cc(Cl)cc(Oc2cc(Nc3ncnc(C4CC4)n3)ccc2C#N)c1 [Compound 37] | < 5 |
